Measured values as given in PMC5400244.
No constants are given. Whether binding was seen depends on the method and setting. Binding seen in cells or lysates may run through a third protein. Some results given as binding are weak or reduced against the parent protein; the word gives no strength. Each block holds one binder with its values, some of them ahead of it.

Protein sequences, listed by entry. Tags and fused reporters are not part of them.
UniProt O75475: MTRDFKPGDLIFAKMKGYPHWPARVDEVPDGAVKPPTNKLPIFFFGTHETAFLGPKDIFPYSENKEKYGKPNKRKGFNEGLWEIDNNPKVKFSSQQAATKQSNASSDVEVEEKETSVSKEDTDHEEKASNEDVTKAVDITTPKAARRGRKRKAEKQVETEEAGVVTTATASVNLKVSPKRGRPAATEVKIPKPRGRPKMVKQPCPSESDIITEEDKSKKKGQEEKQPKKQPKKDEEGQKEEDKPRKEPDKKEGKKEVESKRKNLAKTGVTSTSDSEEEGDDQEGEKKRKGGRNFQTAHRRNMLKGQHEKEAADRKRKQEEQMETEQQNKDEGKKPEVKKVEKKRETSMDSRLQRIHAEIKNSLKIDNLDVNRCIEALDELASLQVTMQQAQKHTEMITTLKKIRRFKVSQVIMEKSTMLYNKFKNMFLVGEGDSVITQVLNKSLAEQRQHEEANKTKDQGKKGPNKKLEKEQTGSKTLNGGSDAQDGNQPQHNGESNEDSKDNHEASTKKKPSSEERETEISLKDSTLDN
UniProt Q07955: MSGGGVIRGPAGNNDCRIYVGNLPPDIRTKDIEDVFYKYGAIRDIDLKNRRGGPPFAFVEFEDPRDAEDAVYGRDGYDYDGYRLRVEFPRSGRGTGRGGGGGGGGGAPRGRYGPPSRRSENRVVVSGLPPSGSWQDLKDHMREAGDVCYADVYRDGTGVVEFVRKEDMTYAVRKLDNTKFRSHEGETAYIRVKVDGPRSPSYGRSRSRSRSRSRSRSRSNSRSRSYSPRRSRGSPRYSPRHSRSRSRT

What was measured:
Assay in all cases: co-IP; endogenous proteins in FD cell lysates; 5 ug antibody covalently cross-linked to Protein A/G magnetic beads (Pierce Crosslink Magnetic IP/Co-IP kit), room temperature 2 hours, low-pH elution, Western blotting; nonimmune IgG as negative control
[1] = biological target: PC4 and SFRS1-interacting protein (human (endogenous in EBV-transformed lymphoblast cells of an FD patient)) (UniProt O75475)
[2] = biological target: T1, SRp20 (human (endogenous in EBV-transformed lymphoblast cells of an FD patient)) (UniProt P84103)
T1 sequence: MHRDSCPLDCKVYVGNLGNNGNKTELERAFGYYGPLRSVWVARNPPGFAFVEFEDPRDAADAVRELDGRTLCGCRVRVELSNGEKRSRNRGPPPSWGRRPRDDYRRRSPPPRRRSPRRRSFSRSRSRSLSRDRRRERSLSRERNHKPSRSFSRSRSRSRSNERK

[3] = biological target: SF2/ASF (human (endogenous in EBV-transformed lymphoblast cells of an FD patient)), Q07955; details: remark: other sources report otherwise
[4] = biological target: SF2/ASF (human (endogenous in EBV-transformed lymphoblast cells of an FD patient)) (UniProt Q07955)

- binding [1]: binds
- binding [2]: binds
B1: non-POU domain-containing octamer-binding protein (protein, UniProt Q15233 1-471)
chain: MQSNKTFNLEKQNHTPRKHHQHHHQQQHHQQQQQQPPPPPIPANGQQASSQNEGLTIDLKNFRKPGEKTFTQRSRLFVGNLPPDITEEEMRKLFEKYGKAGEVFIHKDKGFGFIRLETRTLAEIAKVELDNMPLRGKQLRVRFACHSASLTVRNLPQYVSNELLEEAFSVFGQVERAVVIVDDRGRPSGKGIVEFSGKPAARKALDRCSEGSFLLTTFPRPVTVEPMDQLDDEEGLPEKLVIKNQQFHKEREQPPRFAQPGSFEYEYAMRWKALIEMEKQQQDQVDRNIKEAREKLEMEMEAARHEHQVMLMRQDLMRRQEELRRMEELHNQEVQKRKQLELRQEEERRRREEEMRRQQEEMMRRQQEGFKGTFPDAREQEIRMGQMAMGGAMGINNRGAMPPAPVPAGTPAPPGPATMMPDGTLGLTPPTTERFGQAATMEGIGAIGGTPPAFNRAAPGAEFAPNKRRRY

- binding [3]: binds
B2: non-POU domain-containing octamer-binding protein, Q15233 1-471 (protein)
chain: B1 chain

- binding [1]: binds
- binding [4]: binds
B3: SRp20 (protein, UniProt P84103 1-164)
chain: T1 sequence
